Among all 31,000 sequences or so, about 1,400 (4.5%) were called active.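 Rule for the calls: active = median seed-adjusted z-score above 1 or below -1; inactive = the rest.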 The list shows a part of the results.
Test: Novel Modifiers of Survival Motor Neuron (SMN) Protein: Gene Identification via Genome-wide siRNA Screen;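 note: luminescence tracks full-length SMN protein made from the SMN2 reporter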
Conditions: HEK293T SMN2-luciferase reporter, siRNA knockdown, 72 h; actives lie on both sides
Procedure, shortened: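 Each of three siRNAs per gene is reverse-transfected (1 pmol) into reporter HEK293T cells whose luciferase output tracks SMN protein level. After 72 h culture, ONE-Glo luminescence is control-normalized, log10-transformed and MAD-standardized; Common Seed Analysis deprioritizes seed-driven hits.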

Sequence	median seed-adjusted z-score
CACUGUGGAUGGUAUGGGATT against SGCZ	inactive: 0.0893
CAGCUUUACUACUCCCUUUTT against PHOSPHO1	inactive: -0.296
AGAUUGCUCGGAUCUACAATT against UBE2D2	inactive: 0.574
GUACGUCCAUUAUGGAGAATT against GPR82	inactive: -0.83
GAAUCGAUGUAAAAACCGUTT against PTPRO	inactive: 0.387
GGUCAACGAUGACAACCGATT against ITGB4	inactive: -0.226
UCUGAGAACUUGAGACCUATT against FOXE1	inactive: -0.316
GCACAUUGGUUUUGGAAUUTT against MS4A12	inactive: -0.881
GCAUCGUAUCAGCAUCUAUTT against BRPF3	inactive: -0.615
CCGUGAAACAUGACUCCAATT against SEMA6B	inactive: 0.311
CAGACUGAAGGGUUCCGAATT against MLH3	inactive: 0.228
GCAACUUUCCACUUUCGAATT against ZNF280B	inactive: 0.113
CCACCUACACUUUAGACAATT against ZNF197	inactive: -0.219
AGACCUGACUGUUAUCACATT against OPLAH	inactive: -0.233
AGUUCACUAAGUUAUGCAATT against GJB3	inactive: -0.198
AGACAGAGCAGAUCCGCAATT against PROKR1	inactive: -0.507
GGACUUCAAGGCAUACGAATT against FOXA1	inactive: 0.279
CCGUGGAUGAGGUAUUCAATT against PLCL2	inactive: 0.393
GAAUCCGGAUCAUUCUAGATT against PIAS1	inactive: -0.0367
GGCUCCAUCUGGUCAGAAUTT against FOXP4	inactive: 0.588
GCUAGAUUAUCGUCCAAAATT against FAS	inactive: -0.377
CUUCAACUGUCUACAAUUATT against ABP1	inactive: -0.241

Sequence	median seed-adjusted z-score
CGAGACCGCUACAACCACATT against GPR4	inactive: 0.563
GCUACUGUCUCAACGGAUATT against NPNT	inactive: 0.164
CAACGACUACAGGUCUGUATT against ITGA11	inactive: 0.496
GGGCUCCAUUCAUUCAACATT against KLK15	inactive: 0
GGAUAAUAGCAAAUAUCAUTT against FCRL3	inactive: -0.642
GCUUGGAGCUCAACACCGUTT against ONECUT3	inactive: -0.653
GCAAUGUUAUCAUCACCCATT against DHX30	inactive: 0.335
AGUAUAAGCCUGCAGUUAATT against AKR1B1	inactive: 0.0107
CCUGGAUCAUAUUCACAGATT against RAGE	inactive: -0.154
GGCAAAGGCAAAUUGAGGATT against HRH1	inactive: 0.204
CCACGGGAAAGAUCGUGUATT against SLC6A8	inactive: -0.0673
GCUCAACUCUUAUUAGUCATT against ZNF485	inactive: 0.445
GCACCAUCUUCAGCGAAGATT against GSC2	inactive: -0.0829
GGCUAACAAUGGUACCGAUTT against CREB1	inactive: 0.391
CAGGUUUACUGCUAAACCATT against KIF2A	inactive: 0.289
AGCUUCGUCUACAUCCUUATT against KCNK3	inactive: 0
GCUGCAACCUUGACUACUATT against RRM1	active: -5.51
GUAUCCACUUCAUCAUUAATT against GTF2IRD1	inactive: -0.282
GGAAAAAUGAUUCAACCCATT against TRHR	inactive: -0.873
GGCAAAACCUGAUGAAUUATT against VAPA	inactive: -0.623
GCAGAAAUAUGACCAUGCATT against NMT1	inactive: 0.18
GGACCAGACAACGAACUGATT against RNF135	inactive: 0.581

Sequence	median seed-adjusted z-score
CCACCUUUGUUGUCUGCAATT against TCEA2	inactive: 0.552
GUGCCUAAGUCUUUAGUUUTT against IFI35	inactive: 0.105
GAAGGACACUUAUAGGCUUTT against LSM1	inactive: 0
AGCCCGUCGUCUACUUCUGTT against MRGPRE	inactive: -0.65
GCAACAUCUUUAAGCAGUUTT against ZNF195	inactive: 0.0753
GUCGAGCAAUAGGCAAUAATT against MAP3K7IP2	inactive: 0.0195
CAUCUUCUAUGGGAUGAUUTT against AMDHD2	inactive: -0.0707
GCAGUACUCUGGAAUAUAUTT against SLC25A24	inactive: -0.0384
CGGGCGAGUUUACUAUGUATT against ITCH	inactive: 0.199
UCGAUGCUCUCACCACGCATT against PRSSL1	inactive: -0.221
CGUCGACUAUGGAGACAGATT against TSSK1B	inactive: -0.169
AGCAUGUGGUAGACGAGAATT against RGS19	inactive: 0.295
AACACGUUCUGGAAAAUAATT against HDDC3	inactive: 0.549
CCACAAGCGAGAAACUGCATT against SIGLEC8	inactive: 0.0069
AAACAAGUAUCGUCAGGUATT against SSX5	inactive: -0.0517
CCUCCUAAUUUUAACGAAUTT against ZIC3	inactive: -0.183
GCAAUCACCUUACAUCCAATT against LIPE	inactive: -0.276
GAUGUAAACCCUGAACUAATT against CSRP2	inactive: -0.829
GCACACCACGGAUCUAGAUTT against CKMT1B	inactive: -0.929
CGAAAUCCUGAACACCUCATT against ANXA9	inactive: 0.055
GGUUUUUGCUCAACGGAUUTT against PCDHGA9	inactive: -0.125
AGGUGACAGAACUUAUUAATT against GTF2A2	inactive: 0.0457

Four successive entries already listed:
Sequence	median seed-adjusted z-score
UCGAUGCUCUCACCACGCATT against PRSSL1	inactive: -0.221
CGUCGACUAUGGAGACAGATT against TSSK1B	inactive: -0.169
AGCAUGUGGUAGACGAGAATT against RGS19	inactive: 0.295
AACACGUUCUGGAAAAUAATT against HDDC3	inactive: 0.549

More entries

Sequence	median seed-adjusted z-score
GGUUCUUCGAGAAAAUGGATT against KCNIP3	inactive: 0.283
GCUCGGUGGUUGAUAAUCATT against SLC22A10	inactive: -0.0897
CGGCUGCUGUGCUAUCAUUTT against SLC6A1	inactive: -0.122
UGCAGACACUGAGCCCUGATT against DUSP5	inactive: 0.324
CAUCAUCAUUGCUACUGGATT against TXNRD2	inactive: 0.459
CGAUAUUGCAUGACAUUGATT against TPTE2	inactive: -0.0675
CAGUCUCCAUGAUGCAGCATT against SS18L1	inactive: -0.174
GCAUAGCAUAUAUUAGGCUTT against CAMK2D	inactive: 0.0676
AGCAAAGUGUUCUACCUGATT against YWHAG	active: 1.98
UCCUGUCAUUGCUUACUGATT against C3AR1	inactive: -0.916
GAAGCUACUUCGUCAAGGATT against PI4K2A	inactive: -0.486
GGCAGCUCAUCUCACGAAATT against ANXA9	inactive: 0.055
CAUUGCAAGUUGUUCUUGATT against GJA4	inactive: -0.18
CGACAGAACCCGACUAUGUTT against PAX2	inactive: 0.341
GUGACACUGAGGACGCUGATT against SLC16A8	inactive: 0.192
GCAGGGCGGUAUUGCUGUATT against LILRA3	inactive: -0.548
UCGAGCAACUUAUUCCAUATT against MED30	active: -2.06
GGAGCCUUGUUGAUCCUUATT against FRAP1	active: -1.02
GGAUAUUGAUUUUCGGUAUTT against ZCCHC4	inactive: -0.0614
CGAUAUUACCAAAUCGGUATT against LY75	inactive: -0.0919
GACAUAUCGCUGUUGUUUUTT against BIRC8	inactive: 0.0184
ACAUCGAGUCAGAUCUUCATT against SLC11A1	inactive: -0.516

Sequence	median seed-adjusted z-score
UGAAAGUCUUUGACCAGGATT against LOC100137047-PLA2G4B	inactive: -0.022
CGGUGAAGGUGCUAAAGGATT against RAD23A	active: -1.13
GCAGAAUACCCUAUAGUUATT against PDC	inactive: -0.541
GGAUUUCUCAUGGAAGUUUTT against CUTC	inactive: -0.377
CGAUAAUCUGGGCUACAGATT against ADD1	inactive: -0.0129
GCACUUACGAUGACCGGCATT against TNFAIP1	inactive: 0.0766
CCAUUACGCUGCGGAAUCUTT against TREM2	inactive: 0.057
UGCUUAUUGUGAAAAUCCATT against RAB27B	inactive: 0
GGAAAUCAUAUGUUCGAAATT against CAPS2	inactive: 0.135
GGAACAGUACAGAGUUGUATT against ERC1	inactive: 0.415
AGCCUACACUCCAUAUUCATT against ZNF586	inactive: -0.973
GAUGAUCGCUUCAACCUGATT against DDX6	active: 1.12
CUAUUGUUGUUCGCAAUAATT against TTN	inactive: 0.872
CAGGUGCUUCGUUUCCUGATT against ARHGAP1	active: -1.14
CGGAGUCUGCGCUUCGUUATT against ACP2	inactive: -0.00569
GGUUGGAUGCUAUAUACCATT against ROS1	inactive: -0.0561
ACAAGUUCGUGGACGAAGATT against ARPC5	inactive: -0.479
UGAACGUGCUUCUUUGUAATT against HOXB8	inactive: 0.133
GAUGGUAUUUGUUCAAUGATT against ZNF460	inactive: -0.302
